PubChem BioAssay AID652238 – Broad Institute | 2013
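One siRNA at five doses; scrambled control at 100 nM; the deposited percent formula has misplaced brackets.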 Further read-outs or replicates are left out here.

- Aim: 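Target check: knock-down effect on ATP in cytokine-exposed insulin-secreting cells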
- System: rat INS-1E insulinoma beta cells
- Knock-down reagent: siRNA against rat genes, 6.25 to 100 nM siRNA; scrambled control at 100 nM
- Duration: 72 h transfection, then 48 h cytokines (about 120 h total)
- Treatment: cytokine mix: IL-1 beta 10 ng/mL, TNF-alpha 25 ng/mL, IFN-gamma 50 ng/mL, for 48 h
- Measured: 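Luminescent cellular ATP, given as percent prevention of the cytokine-caused ATP fall, scaled from cytokine-treated scrambled control (0%) to untreated scrambled control (100%)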
- Scale: ATP loss blocked, 100 nM: higher = stronger protection from cytokine-induced ATP loss

Usp9x (ubiquitin specific peptidase 9, X-linked) [SID161003812]
- ATP loss blocked, 100 nM (%): 85
